# These are yes or no findings as the source states them, for the method shown. In cells and extracts the contact can be indirect. Some binding calls cover weakened binding; strength is not graded here. Where a sequence is shown, tags or fusion partners need not be part of it.
# The chains behind the UniProt entries cited, without tags or fusion partners. Where a name states a change or a piece, a line headed by the entry shows the natural chain unless it says otherwise.
# UniProt Q62120: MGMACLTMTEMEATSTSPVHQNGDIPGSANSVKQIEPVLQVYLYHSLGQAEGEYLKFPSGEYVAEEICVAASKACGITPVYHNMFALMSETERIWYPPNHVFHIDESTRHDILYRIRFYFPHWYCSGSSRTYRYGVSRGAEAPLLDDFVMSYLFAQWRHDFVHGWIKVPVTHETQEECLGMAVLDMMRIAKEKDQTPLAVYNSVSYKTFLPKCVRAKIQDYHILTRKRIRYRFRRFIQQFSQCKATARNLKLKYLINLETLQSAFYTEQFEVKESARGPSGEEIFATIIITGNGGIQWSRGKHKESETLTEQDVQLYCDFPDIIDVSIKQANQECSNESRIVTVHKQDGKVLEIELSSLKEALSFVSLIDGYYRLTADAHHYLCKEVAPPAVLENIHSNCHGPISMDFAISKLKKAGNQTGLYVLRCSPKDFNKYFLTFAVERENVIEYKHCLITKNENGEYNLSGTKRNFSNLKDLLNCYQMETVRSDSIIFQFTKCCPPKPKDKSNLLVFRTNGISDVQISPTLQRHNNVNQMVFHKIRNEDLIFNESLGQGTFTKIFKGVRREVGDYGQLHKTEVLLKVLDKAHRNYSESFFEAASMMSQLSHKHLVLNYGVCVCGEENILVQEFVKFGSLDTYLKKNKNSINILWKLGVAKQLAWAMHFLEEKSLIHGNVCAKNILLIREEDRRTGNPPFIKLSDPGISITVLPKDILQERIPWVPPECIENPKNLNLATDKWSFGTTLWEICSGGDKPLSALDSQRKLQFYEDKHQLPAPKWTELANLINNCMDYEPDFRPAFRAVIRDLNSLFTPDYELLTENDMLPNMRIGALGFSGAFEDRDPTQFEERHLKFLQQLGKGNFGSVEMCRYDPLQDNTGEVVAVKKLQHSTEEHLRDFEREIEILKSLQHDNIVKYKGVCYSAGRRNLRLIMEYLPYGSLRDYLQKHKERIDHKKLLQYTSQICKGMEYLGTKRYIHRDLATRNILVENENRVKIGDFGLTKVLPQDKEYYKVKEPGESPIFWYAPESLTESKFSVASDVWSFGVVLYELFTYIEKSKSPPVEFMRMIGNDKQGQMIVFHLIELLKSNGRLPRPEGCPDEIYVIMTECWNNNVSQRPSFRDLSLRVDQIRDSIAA
# Key:
# [1] = biological target: T1, GST fusion protein containing the full length murine EPOR cytoplasmic domain (amino acids 257-483) (murine) (UniProt P14753); assay: pull-down from cell extracts on GST fusion protein beads, Jak2 immunoblot
# T1 sequence (looked up): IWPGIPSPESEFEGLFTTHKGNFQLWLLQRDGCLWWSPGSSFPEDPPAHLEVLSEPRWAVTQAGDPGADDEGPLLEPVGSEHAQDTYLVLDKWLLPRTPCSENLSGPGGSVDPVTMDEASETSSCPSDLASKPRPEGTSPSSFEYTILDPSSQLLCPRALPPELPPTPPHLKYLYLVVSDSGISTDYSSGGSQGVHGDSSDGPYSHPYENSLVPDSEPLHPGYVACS
# [2] = biological target: T1, GST fusion protein containing the full length murine EPOR cytoplasmic domain (amino acids 257-483) (murine); assay: pull-down from extracts of unstimulated or EPO stimulated DA3(EPOR) cells on GST-EPOR beads, Jak2 immunoblot
substance,measurement,setting,value
murine Jak2 protein tyrosine kinase (from UniProt Q62120 1-1120) (enzyme),binding,[1],binds
same,binding,[2],binds
